In the supplement of paper PMC3334620:
Over roughly 33,000 sequences, “E-score (-0.5 to 0.5)” has its median near -0.015; the highest 2% begin near 0.3. Some of the results follow.

Target: T1, Abf1 (UniProt P14164)
T1 sequence: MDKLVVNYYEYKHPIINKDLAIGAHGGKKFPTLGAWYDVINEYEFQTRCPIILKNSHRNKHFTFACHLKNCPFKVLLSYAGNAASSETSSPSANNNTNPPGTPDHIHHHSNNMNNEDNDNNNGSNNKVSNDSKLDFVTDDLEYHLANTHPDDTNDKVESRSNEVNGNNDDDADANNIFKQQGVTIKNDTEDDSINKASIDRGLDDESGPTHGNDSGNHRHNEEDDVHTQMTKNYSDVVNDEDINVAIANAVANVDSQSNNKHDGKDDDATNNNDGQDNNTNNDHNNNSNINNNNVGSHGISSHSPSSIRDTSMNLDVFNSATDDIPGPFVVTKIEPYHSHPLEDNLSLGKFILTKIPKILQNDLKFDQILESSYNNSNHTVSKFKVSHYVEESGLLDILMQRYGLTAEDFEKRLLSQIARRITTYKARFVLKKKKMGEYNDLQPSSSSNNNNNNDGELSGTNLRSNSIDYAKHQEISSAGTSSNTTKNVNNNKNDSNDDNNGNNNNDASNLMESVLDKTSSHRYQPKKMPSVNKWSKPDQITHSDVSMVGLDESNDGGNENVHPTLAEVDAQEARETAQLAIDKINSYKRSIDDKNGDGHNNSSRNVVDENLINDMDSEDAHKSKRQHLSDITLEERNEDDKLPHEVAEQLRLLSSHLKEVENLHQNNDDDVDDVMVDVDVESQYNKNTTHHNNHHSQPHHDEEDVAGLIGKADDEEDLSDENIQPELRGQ
Assay: PBM E-score (8-mer binding enrichment) (E-score (-0.5 to 0.5)); higher = stronger / more preferred TF binding
Conditions: protein concentration: 200 nM; construct: GST-full length
Description: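 Universal 'all 10-mer' protein binding microarrays (Agilent AMADID 015681) probed with GST-tagged S. cerevisiae TFs (full-length or DBD) made by in vitro transcription/translation (PURExpress), about 100-200 nM. Bound TF was detected with fluorescent anti-GST. Each ungapped 8-mer (which stands for itself and its reverse complement) is scored by the PBM enrichment score (E-score), a modified Wilcoxon-Mann-Whitney statistic from -0.5 to +0.5, computed with the Universal PBM Analysis Suite. Scale: above 0.35 generally sequence-specific binding.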

Sequence | PBM E-score
GAACTGAA | -0.00954
GCACTTAC | -0.12
TAAGGACA | 0.103
AGTCCGGC | -0.0997
CGTGCCTC | -0.00277
CCACAATC | -0.0961
ATCATATA | 0.19
CTCCTATA | -0.124
ACGGACCA | 0.147
ACAATGCT | -0.0572
CTGACACC | -0.0573
ACGTCTGA | 0.139
CAGGAAGA | -0.051
ACATAGAG | -0.0346
ATCGTGTC | 0.235
CAGAGAAA | 0.11
AAGTCGGC | -0.173
ACCAGTCG | 0.0461
AATTTACG | 0.0813
GAGATGCA | 0.015
ATGCTGGG | -0.123
AGGCGAAT | -0.0388
GGTACGAA | 0.339
GCTCACAC | 0.0118
CGCTTGAA | 0.168

Sequence | PBM E-score
CAATCCCA | -0.188
ATACATGG | 0.0959
AAACAATC | 0.176
ATCAGAGG | -0.143
ATTAATGA | 0.212
ACGTGAGG | 0.00809
AAACTTTC | -0.00933
AAGGAGCC | -0.316
AGGGGCGC | -0.187
ACAGGCGT | -0.316
ATCTTTAA | 0.21
ACTTATAT | 0.229
CGGTGTTC | 0.0262
CTTTGATA | 0.143
AGGAGGAG | -0.242
CAAAGCAG | -0.0491
AAAGCCCC | -0.254
CCATGCTC | -0.117
CAAAAGAA | 0.245
CTCTGTGC | -0.127
CAAGATTA | 0.0781
CTTGTCTC | 0.0139
GCTTTCGA | -0.208
AGTACACA | 0.00416
TCTCGACA | -0.0601

Sequence | PBM E-score
CTGGTTTA | 0.0226
CACCTAAC | -0.0284
ATGTCAGG | -0.133
CCCGAGGA | -0.174
ATTGTTTC | 0.136
CCACTTCG | -0.155
CAACTGTA | -0.0398
AACAGCTG | -0.0093
AACTGCAC | 0.0507
GCTGAAGA | -0.133
AGAGAAAG | -0.0977
CGACGCAG | 0.0943
TCCCGTAA | -0.0415
AGATTGTG | 0.0417
ATTTGCTC | -0.0177
CAGCTACC | -0.119
ATTGCTCA | 0.0967
CAATCCGG | -0.145
TAAAGGTA | -0.131
CACTAAAG | -0.0439
CTTTGATC | -0.0484
ATTACAAC | 0.0241
ATACCTCA | -0.00813
CAGCGGAC | -0.105
AAGACAAA | 0.127

Sequence | PBM E-score
CAGCCCTG | -0.0768
ACTTCCTC | -0.286
CTGGATTC | -0.0455
CGTTCCGC | -0.0241
GCTCCCAC | -0.147
AGCTGCCA | -0.0166
CAAACTAC | 0.0778
ATTTTCAA | 0.169
ACATAGAA | 0.0504
CCAGATCG | 0.0622
CCCACTTA | -0.0867
CGCAACAG | 0.085
ACAGGGCC | -0.117
ACGGTCGA | 0.0426
CGCATGCG | -0.186
AACCGTTG | 0.103
CGTGGACA | 0.149
AAAACTGC | 0.0499
CTACAGCC | -0.269
CTAGGAAC | -0.176
CTGAATGA | 0.118
AAAGCCGT | 0.141
GCACGGGC | -0.0236
ATCTTTTA | 0.102
GACGTCAA | 0.0747

For convenience, some entries already given:
Sequence | PBM E-score
CTTTGATC | -0.0484
ATTACAAC | 0.0241
ATACCTCA | -0.00813
CAGCGGAC | -0.105

Remaining list, next part.

Sequence | PBM E-score
ACGCGTCT | -0.0644
CTGCGCTC | -0.237
AGTGCCCG | -0.0245
AACCCTAA | 0.00952
ATAGAAGG | 0.00397
AGCCCCTG | -0.315
GCAAGTGC | -0.309
ATGATGTG | 0.265
ATAGGTCC | 0.0302
AACGTAAA | 0.153
GTCTTTTA | -0.0526
CGTCCGAA | 0.172
AACGGCGC | 0.123
CACGGCAG | 0.227
AGATTTTC | 0.108
CGTCAGAC | -0.012
CTCGTGAA | 0.224
CCATCGGA | -0.168
GCGGTTAA | -0.26
GACCTAGC | -0.196
CACGAGAA | 0.0195
GTGAACGA | 0.0714
GCTTTTAC | -0.0448
ACTTATCT | 0.264
ACGGTTTA | 0.0908

Retrieved one by one from the entries so far, 4 records:
Sequence | PBM E-score
AACCCTAA | 0.00952
CACGAGAA | 0.0195
AACGTAAA | 0.153
ACGGTTTA | 0.0908

(further entries)

Sequence | PBM E-score
CCGGCACA | 0.175
AGAGGCCG | -0.189
ATATAAAA | 0.185
CGATCGAG | -0.0536
GCATAACA | 0.0217
ATTGATGC | 0.0481
CAGACCGG | -0.265
CTGAATCA | -0.0743
GCATGGAC | -0.0661
AGGCCAAC | -0.118
GTTGTTTA | 0.0212
CGAGACAC | -0.00878
ATCTTGGA | 0.052
ACTCTAGA | -0.0436
CAACGACG | 0.139
AGCGTGTG | -0.101
ATAAACGA | 0.288
CCCTAATC | -0.118
ACGAAAGG | 0.276
CATGCCCA | -0.289
GCGGCCGC | 0.0297
ACGAAGTC | 0.152
ACACTCAT | 0.125
ACTTTCGA | 0.0942
GCGTACGC | -0.158

Sequence | PBM E-score
AAAAGTTA | 0.151
GGCAGTGA | -0.0277
CAAAAGAG | -0.049
AATCGGCA | -0.00998
CTCACTGA | 0.0781
CACCGGCC | -0.199
GGGCAGAC | -0.227
AATTCAAC | 0.171
CGATGGAC | 0.0838
ATATTTGG | 0.0242
GACTACGC | -0.00206
ACTATCCG | 0.172
CTCCGGAA | -0.179
TCTTTCCA | -0.0875
CCAGCCCG | -0.235
CCTACAGG | -0.369
ATAACAAG | 0.122
AAAGGTAA | 0.133
ATGGAACA | -0.0586
AGGGAAAC | -0.0375
AGAGGTAA | -0.117
GATCCGAA | 0.0965
